Test results reported in the supplement of paper PMC10849652.
The list shows a part of the results.

By UniProt entry, the sequences of proteins in these tests, tags left out. Where a name states a change or a piece, a line headed by the entry shows the natural chain unless it says otherwise.
UniProt Q5T0F9: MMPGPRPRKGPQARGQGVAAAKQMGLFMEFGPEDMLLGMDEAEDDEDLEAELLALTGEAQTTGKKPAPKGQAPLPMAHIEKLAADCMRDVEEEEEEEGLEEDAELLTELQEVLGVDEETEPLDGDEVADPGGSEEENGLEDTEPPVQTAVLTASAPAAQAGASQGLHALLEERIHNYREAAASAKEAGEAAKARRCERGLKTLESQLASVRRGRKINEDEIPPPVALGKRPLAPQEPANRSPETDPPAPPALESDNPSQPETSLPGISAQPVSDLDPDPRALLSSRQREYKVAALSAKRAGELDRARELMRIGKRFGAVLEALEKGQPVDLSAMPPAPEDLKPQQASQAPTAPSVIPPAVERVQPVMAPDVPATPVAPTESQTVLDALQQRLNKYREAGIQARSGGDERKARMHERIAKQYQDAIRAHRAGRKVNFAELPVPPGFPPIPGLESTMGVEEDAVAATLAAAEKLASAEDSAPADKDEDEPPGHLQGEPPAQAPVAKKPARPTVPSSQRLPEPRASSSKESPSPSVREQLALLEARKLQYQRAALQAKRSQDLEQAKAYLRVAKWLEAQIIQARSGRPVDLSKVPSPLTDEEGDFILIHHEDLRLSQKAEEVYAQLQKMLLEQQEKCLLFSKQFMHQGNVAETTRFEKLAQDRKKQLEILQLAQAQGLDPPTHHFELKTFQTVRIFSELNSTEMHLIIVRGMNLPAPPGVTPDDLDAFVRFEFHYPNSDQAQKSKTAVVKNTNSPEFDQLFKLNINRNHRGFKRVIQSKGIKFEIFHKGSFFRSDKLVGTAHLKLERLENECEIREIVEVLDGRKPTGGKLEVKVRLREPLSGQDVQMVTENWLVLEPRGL
UniProt P13987: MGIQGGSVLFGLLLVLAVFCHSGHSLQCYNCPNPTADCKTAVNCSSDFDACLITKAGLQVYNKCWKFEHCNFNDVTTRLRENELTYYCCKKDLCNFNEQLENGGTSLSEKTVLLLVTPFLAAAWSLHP
UniProt Q6P1N0: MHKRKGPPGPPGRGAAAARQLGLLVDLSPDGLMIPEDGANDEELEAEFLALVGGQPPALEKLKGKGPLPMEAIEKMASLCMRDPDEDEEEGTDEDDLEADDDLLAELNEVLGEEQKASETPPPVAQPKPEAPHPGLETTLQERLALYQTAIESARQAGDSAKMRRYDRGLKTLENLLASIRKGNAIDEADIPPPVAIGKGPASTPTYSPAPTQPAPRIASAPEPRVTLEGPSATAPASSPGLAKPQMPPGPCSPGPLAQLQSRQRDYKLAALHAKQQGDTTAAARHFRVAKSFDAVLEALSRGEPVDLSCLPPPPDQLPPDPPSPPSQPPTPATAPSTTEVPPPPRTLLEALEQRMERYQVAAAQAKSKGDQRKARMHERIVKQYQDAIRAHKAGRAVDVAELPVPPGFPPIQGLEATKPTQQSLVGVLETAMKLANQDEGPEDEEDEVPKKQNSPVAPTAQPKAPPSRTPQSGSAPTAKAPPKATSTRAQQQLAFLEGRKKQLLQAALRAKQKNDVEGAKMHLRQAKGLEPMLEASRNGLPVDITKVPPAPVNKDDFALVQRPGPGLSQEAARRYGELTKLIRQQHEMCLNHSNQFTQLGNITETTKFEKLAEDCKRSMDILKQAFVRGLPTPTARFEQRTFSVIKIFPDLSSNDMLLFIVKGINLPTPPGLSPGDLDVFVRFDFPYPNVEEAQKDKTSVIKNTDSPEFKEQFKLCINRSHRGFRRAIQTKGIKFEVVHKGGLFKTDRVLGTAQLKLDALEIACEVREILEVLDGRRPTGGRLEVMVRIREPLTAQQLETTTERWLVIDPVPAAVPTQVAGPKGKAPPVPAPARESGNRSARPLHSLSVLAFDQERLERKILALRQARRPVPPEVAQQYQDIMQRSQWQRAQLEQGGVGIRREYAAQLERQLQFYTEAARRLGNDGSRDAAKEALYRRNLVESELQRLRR
UniProt Q16543: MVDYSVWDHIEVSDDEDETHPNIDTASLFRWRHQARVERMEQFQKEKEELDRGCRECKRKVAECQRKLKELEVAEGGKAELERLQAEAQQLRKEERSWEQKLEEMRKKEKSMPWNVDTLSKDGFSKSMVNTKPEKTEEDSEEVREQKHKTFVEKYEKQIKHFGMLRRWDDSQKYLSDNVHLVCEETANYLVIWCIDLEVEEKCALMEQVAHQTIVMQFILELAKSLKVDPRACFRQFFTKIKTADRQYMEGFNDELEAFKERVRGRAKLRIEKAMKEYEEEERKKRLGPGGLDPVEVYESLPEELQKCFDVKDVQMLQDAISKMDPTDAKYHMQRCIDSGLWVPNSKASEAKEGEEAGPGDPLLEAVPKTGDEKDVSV
UniProt P60953, whole entry, looked up: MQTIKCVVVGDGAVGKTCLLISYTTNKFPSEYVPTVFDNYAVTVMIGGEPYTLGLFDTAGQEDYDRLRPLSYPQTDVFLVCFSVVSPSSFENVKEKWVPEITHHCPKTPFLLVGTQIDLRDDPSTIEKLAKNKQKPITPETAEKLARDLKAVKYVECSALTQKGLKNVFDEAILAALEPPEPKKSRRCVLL
UniProt Q9NPF0: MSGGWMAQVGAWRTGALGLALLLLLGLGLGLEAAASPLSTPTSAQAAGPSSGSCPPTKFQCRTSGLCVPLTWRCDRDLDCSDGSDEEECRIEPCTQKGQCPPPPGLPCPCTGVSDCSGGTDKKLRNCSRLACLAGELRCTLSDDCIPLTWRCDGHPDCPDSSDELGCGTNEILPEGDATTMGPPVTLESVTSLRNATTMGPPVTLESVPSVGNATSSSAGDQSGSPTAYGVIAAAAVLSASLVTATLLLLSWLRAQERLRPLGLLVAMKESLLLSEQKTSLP
UniProt Q4VC31: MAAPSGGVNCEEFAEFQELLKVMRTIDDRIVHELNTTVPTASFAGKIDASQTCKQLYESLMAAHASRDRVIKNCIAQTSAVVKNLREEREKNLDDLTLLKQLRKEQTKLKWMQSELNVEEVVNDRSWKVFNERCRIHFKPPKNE
UniProt P49427: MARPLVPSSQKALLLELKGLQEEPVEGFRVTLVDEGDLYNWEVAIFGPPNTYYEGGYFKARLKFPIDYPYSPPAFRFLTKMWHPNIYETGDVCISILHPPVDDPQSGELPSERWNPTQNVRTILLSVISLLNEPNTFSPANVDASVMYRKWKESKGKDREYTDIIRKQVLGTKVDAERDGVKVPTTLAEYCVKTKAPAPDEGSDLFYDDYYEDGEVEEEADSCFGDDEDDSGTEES
UniProt P48643, whole entry, looked up: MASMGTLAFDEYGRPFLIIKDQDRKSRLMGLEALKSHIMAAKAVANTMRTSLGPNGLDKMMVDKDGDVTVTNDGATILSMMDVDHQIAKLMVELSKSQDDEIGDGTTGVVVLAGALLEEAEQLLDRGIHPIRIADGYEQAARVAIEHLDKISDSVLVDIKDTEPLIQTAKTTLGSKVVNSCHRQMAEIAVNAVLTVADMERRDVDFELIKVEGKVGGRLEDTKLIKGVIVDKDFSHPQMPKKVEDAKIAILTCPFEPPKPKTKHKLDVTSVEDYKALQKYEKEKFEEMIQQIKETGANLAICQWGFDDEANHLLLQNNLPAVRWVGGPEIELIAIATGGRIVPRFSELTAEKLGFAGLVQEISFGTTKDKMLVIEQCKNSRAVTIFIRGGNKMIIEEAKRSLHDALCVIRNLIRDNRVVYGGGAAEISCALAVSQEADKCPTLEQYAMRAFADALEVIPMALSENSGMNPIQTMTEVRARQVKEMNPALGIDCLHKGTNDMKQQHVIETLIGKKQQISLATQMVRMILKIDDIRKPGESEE
UniProt P50990: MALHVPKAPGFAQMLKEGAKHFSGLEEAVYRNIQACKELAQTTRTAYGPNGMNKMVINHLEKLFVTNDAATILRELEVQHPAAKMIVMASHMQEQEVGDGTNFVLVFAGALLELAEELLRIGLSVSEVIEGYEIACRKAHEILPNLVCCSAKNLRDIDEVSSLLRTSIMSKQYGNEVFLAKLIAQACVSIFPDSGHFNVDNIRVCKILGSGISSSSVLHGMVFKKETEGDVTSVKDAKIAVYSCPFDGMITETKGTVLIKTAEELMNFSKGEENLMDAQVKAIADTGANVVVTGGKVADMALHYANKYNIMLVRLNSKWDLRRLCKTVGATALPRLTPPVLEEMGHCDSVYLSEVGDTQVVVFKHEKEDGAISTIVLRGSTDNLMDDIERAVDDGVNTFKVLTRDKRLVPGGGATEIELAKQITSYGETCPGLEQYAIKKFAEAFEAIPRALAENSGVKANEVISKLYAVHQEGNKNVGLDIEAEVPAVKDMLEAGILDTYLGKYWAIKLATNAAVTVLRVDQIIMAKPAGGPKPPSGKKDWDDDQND
UniProt Q8WUD4: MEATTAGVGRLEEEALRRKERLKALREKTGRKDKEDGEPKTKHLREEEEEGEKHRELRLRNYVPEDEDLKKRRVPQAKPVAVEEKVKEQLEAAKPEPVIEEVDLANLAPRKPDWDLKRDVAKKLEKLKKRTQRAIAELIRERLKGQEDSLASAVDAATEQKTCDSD
UniProt Q96NT0: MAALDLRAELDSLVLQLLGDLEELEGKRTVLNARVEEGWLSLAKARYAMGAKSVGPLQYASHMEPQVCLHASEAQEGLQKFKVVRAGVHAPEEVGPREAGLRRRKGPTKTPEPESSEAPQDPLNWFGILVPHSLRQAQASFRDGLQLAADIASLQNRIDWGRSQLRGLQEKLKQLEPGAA
UniProt P40227, whole entry, looked up: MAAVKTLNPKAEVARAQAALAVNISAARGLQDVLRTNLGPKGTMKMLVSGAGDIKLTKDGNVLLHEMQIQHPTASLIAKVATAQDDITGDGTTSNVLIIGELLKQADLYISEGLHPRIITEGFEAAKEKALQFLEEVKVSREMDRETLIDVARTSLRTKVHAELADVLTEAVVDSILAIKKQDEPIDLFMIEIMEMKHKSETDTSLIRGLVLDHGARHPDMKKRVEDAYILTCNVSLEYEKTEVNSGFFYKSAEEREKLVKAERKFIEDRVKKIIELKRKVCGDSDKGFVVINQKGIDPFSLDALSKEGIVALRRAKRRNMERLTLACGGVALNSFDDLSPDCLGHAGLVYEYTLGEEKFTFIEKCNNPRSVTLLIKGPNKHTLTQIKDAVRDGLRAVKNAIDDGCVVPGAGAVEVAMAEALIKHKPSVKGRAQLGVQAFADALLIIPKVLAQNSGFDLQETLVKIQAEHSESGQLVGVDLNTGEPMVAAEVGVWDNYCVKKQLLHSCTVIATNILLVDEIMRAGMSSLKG
UniProt Q9H6E4: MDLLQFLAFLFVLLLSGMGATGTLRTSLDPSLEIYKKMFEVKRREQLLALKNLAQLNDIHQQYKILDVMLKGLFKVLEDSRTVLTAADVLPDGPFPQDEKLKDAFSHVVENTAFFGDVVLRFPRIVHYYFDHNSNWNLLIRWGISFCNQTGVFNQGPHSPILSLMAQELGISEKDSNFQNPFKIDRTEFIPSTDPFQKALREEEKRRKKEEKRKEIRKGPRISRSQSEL
UniProt Q8N4J0: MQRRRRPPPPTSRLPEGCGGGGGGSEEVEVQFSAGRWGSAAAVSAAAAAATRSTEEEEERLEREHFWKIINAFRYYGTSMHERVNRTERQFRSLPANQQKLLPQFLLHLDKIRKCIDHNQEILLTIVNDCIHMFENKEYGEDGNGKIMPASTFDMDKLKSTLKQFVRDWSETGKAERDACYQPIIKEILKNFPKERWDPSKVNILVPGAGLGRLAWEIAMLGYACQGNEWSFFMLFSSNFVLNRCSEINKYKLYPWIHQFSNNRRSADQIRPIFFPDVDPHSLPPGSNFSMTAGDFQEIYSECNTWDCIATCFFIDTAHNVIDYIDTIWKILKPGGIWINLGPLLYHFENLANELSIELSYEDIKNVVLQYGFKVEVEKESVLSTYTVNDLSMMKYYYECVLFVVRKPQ

Experiments:
Assay in all cases: log2 fold change, soluble protein after heating vs DMSO (PISA); higher = thermal stabilisation; K562 cells, 10 uM, 30 min; active = over 0.2 and 3.5 SD of the protein, either way, in both replicates (recomputed)
[1] = compound: CC[C@@H]1C(=O)N(C)c2cnc(Nc3ccc(C(=O)NC4CCN(C)CC4)cc3OC)nc2N1C1CCCC1
Procedure, shortened: (§1)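 Soluble protein was quantified by TMTpro 16plex LC-MS/MS after channel sums were equalised. It was obtained as the supernatant after 21,000xg for 90 min from pooled aliquots of K562 cells (2×10^6 cells/mL, 10 μM compound, 30 min) heated for 3 min across 48°C-58°C and extracted in PBS with 0.5% NP-40 at 4°C. Thermal stability values are relative to control samples and come from duplicates. They are given as log2 fold changes.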

[2] = compound: CC[C@@H]1C(=O)N(C)c2cnc(Nc3ccc(C(=O)N[C@H]4CC[C@H](N5CCN(CC6CC6)CC5)CC4)cc3OC)nc2N1C(C)C [volasertib]
Procedure, shortened: as §1

[3] = compound: CC[C@H](C)N1C=C(C2=C(C=C(C=C21)C3=CN=C(C=C3)N4CCNCC4)C(=O)NCC5=C(C=C(NC5=O)C)C)C
Procedure, shortened: as §1

[4] = compound: CC[C@H](C)[C@@H](C(=O)N[C@@H]([C@@H](C)O)C(=O)N[C@@H](CC(C)C)C(=O)[C@]1(CO1)C)NC(=O)[C@H]([C@@H](C)CC)N(C)C(=O)C [epoxomicin]
Procedure, shortened: as §1

[5] = compound: CCn1c(C(=O)N(C2CC2)C2CC2)cc2c3c(ncn3C)c(Nc3cc(C)n(C)n3)nc21
Procedure, shortened: as §1

[6] = compound: CCn1cc(-c2ccnc3[nH]c(-c4cccc(CN(C)C)c4)cc23)c(-c2ccc(NC(=O)N(C)C)cc2)n1
Procedure, shortened: as §1

[7] = compound: CN(C)CC(=O)Nc1ccc2[nH]c(=O)c3ccccc3c2c1
Procedure, shortened: as §1

[8] = compound: CN(CCOC1=CC=C(C=C1)C[C@H]2C(=O)NC(=O)S2)C3=CC=CC=N3 (racemic) [rosiglitazone]
Procedure, shortened: as §1

[9] = compound: CN1C2=C(C3=C1C(=O)N(N=C3)CC4=CC(=CC=C4)N)SC(=C2)S(=O)C
Procedure, shortened: as §1

[10] = compound: CN1CCC(CNc2ccc3ncc(-c4cccc(OC(F)(F)F)c4)n3n2)CC1
Procedure, shortened: as §1

[11] = compound: CN1CCN(CCOc2cc(OC3CCOCC3)c3c(Nc4c(Cl)ccc5c4OCO5)ncnc3c2)CC1 [saracatinib]
Procedure, shortened: as §1

[12] = compound: CN1CCN(c2nc(C3=C(c4c[nH]c5ccccc45)C(=O)NC3=O)c3ccccc3n2)CC1 [sotrastaurin]
Procedure, shortened: as §1

[13] = compound: CN1CC[C@H](c2c(O)cc(O)c3c(=O)cc(-c4ccccc4Cl)oc23)[C@H](O)C1 [alvocidib]
Procedure, shortened: as §1

[14] = compound: CN1CCc2c(c3ccccc3n2Cc2ccc(C(=O)NO)cc2)C1 [Tubastatin A]
Procedure, shortened: as §1

[15] = compound: CNC(=O)C1=CC=CC=C1NC2=NC(=NC=C2Cl)NC3=C(C=C(C=C3)N4CCOCC4)OC
Procedure, shortened: as §1

[16] = compound: CNC(=O)c1ccc(Nc2ncc(C(F)(F)F)c(NCc3nccnc3N(C)S(C)(=O)=O)n2)cc1 [defactinib]
Procedure, shortened: as §1

[17] = compound: CNCc1ccc(-c2[nH]c3cc(F)cc4c3c2CCNC4=O)cc1 [rucaparib]
Procedure, shortened: as §1

[18] = compound: CNc1nc(-c2ccc3c(N)n[nH]c3c2)cc(N2C[C@@H](C(=O)NC3CCCCC3)CC[C@H]2C)n1
Procedure, shortened: as §1

[19] = compound: COC(=O)N[C@@H](C)CNc1nccc(-c2cn(C(C)C)nc2-c2cc(Cl)cc(NS(C)(=O)=O)c2F)n1 [encorafenib]
Procedure, shortened: as §1

[20] = compound: COC(=O)[C@H](CCSC)NC(=O)C1=C(C=C(C=C1)NC[C@H](CS)N)C2=CC=CC=C2
Procedure, shortened: as §1

Measured: log2 fold change

CC2D1B isoform 2 (UniProt Q5T0F9)
inactive: [1] -0.041 | [2] -0.115 | [3] 0.051 | [4] -0.047 | [5] -0.039 | [6] -0.007 | [7] 0.011 | [8] 0.048 | [9] 0.118 | [10] -0.121 | [11] 0.037 | [12] -0.023 | [13] -0.062 | [14] -0.025 | [15] -0.048 | [16] -0.079 | [17] -0.021 | [18] 0.027 | [19] 0.032 | [20] 0.021

CD59 isoform 2 (UniProt P13987)
inactive: [1] 0.097 | [2] 0.202 | [3] -0.02 | [4] -0.026 | [5] 0.035 | [6] 0.04 | [7] -0.045 | [8] -0.073 | [9] 0.001 | [10] 0.057 | [11] 0.064 | [12] 0.027 | [13] 0.056 | [14] -0.058 | [15] -0.056 | [16] -0.028 | [17] 0.072 | [18] -0.015 | [19] -0.014 | [20] 0.025

CC2D1A (UniProt Q6P1N0)
inactive: [1] -0.141 | [2] -0.111 | [3] 0.03 | [4] 0.067 | [5] -0.064 | [6] -0.025 | [7] -0.001 | [8] 0.015 | [9] -0.027 | [10] -0.028 | [11] -0.046 | [12] -0.027 | [13] -0.047 | [14] 0.015 | [15] -0.028 | [16] -0.06 | [17] 0.113 | [18] 0.08 | [19] 0.021 | [20] -0.087

CDC37 (UniProt Q16543)
inactive: [1] -0.027 | [2] -0.024 | [3] 0.021 | [4] 0.049 | [5] 0.009 | [6] 0.001 | [7] -0.004 | [8] 0.028 | [9] -0.06 | [10] 0.034 | [11] -0.018 | [12] -0.015 | [13] -0.097 | [14] -0.002 | [15] 0.012 | [16] -0.003 | [17] -0.073 | [18] -0.019 | [19] -0.01 | [20] -0.003

CDC42 (UniProt P60953)
inactive: [1] -0.175 | [2] 0.064 | [3] -0.035 | [4] 0.182 | [5] 0 | [6] -0.049 | [7] -0.039 | [8] -0.084 | [9] -0.098 | [10] 0.062 | [11] 0.02 | [12] 0.039 | [13] -0.106 | [14] -0.04 | [15] 0.129 | [16] 0.028 | [17] 0.075 | [18] 0.012 | [19] -0.201 | [20] 0.076

CD320 (UniProt Q9NPF0)
inactive: [1] 0.027 | [2] 0.077 | [3] -0.037 | [4] 0.041 | [5] -0.011 | [6] -0.02 | [7] -0.024 | [8] 0.007 | [9] -0.049 | [10] -0.008 | [11] -0.001 | [12] 0.001 | [13] -0.019 | [14] -0.027 | [15] 0.006 | [16] 0.058 | [17] 0.03 | [18] -0.083 | [19] 0.025 | [20] 0.058

CCDC58 (UniProt Q4VC31)
inactive: [1] 0.029 | [2] 0.062 | [3] 0.003 | [4] 0.006 | [5] 0 | [6] 0.012 | [7] -0.043 | [8] -0.003 | [9] -0.006 | [10] -0.065 | [11] 0.011 | [12] 0.06 | [13] 0.023 | [14] -0.029 | [15] 0.051 | [16] 0.017 | [17] -0.03 | [18] -0.026 | [19] -0.076 | [20] 0.07

CDC34 (UniProt P49427)
inactive: [1] -0.351 | [2] -0.368 | [3] 0.038 | [4] -0.158 | [5] -0.095 | [6] -0.052 | [7] 0.119 | [8] 0.15 | [9] 0.057 | [10] -0.358 | [11] -0.094 | [12] -0.138 | [13] 0.044 | [14] -0.111 | [15] 0.003 | [16] -0.237 | [17] 0.092 | [18] -0.072 | [19] 0.098 | [20] -0.027

CBL (UniProt P22681)
inactive: [1] -0.02 | [2] -0.029 | [3] 0.034 | [4] 0.001 | [5] -0.024 | [6] -0.043 | [7] -0.014 | [8] 0.014 | [9] -0.02 | [10] -0.026 | [11] -0.02 | [12] 0.014 | [13] -0.076 | [14] -0.01 | [15] -0.021 | [16] -0.017 | [17] -0.011 | [18] -0.031 | [19] -0.017 | [20] 0.017

CCT5 (UniProt P48643)
inactive: [1] 0.002 | [2] 0.01 | [3] 0.004 | [4] 0.027 | [5] 0.004 | [6] 0.036 | [7] -0.004 | [8] 0.015 | [9] -0.03 | [10] 0.008 | [11] 0.036 | [12] -0.007 | [13] -0.007 | [14] -0.034 | [15] -0.026 | [16] -0.01 | [17] -0.096 | [18] -0.002 | [19] 0.046 | [20] 0.006

CCT8 (UniProt P50990)
inactive: [1] -0.004 | [2] -0.026 | [3] 0.005 | [4] 0.029 | [5] -0.001 | [6] 0.026 | [7] -0.008 | [8] 0.007 | [9] -0.041 | [10] -0.018 | [11] 0.007 | [12] 0.014 | [13] 0.008 | [14] -0.001 | [15] -0.03 | [16] 0.004 | [17] -0.045 | [18] 0.009 | [19] 0.014 | [20] 0.001

CCDC12 (UniProt Q8WUD4)
inactive: [1] -0.027 | [2] 0.082 | [3] -0.054 | [4] 0.032 | [5] -0.021 | [6] -0.015 | [7] -0.011 | [8] 0 | [9] 0.002 | [10] -0.045 | [11] -0.024 | [12] 0.007 | [13] 0.056 | [14] -0.009 | [15] -0.048 | [16] -0.019 | [17] 0.002 | [18] -0.012 | [19] -0.046 | [20] 0.065

CCDC115 (UniProt Q96NT0)
inactive: [1] 0.01 | [2] 0.039 | [3] -0.025 | [4] 0.073 | [5] -0.009 | [6] 0.02 | [7] 0.023 | [8] -0.022 | [9] 0.097 | [10] 0.219 | [11] 0.089 | [12] 0.01 | [13] -0.013 | [14] 0.007 | [15] 0 | [16] -0.047 | [17] -0.004 | [18] 0.032 | [19] -0.021 | [20] -0.001

CCT6A (UniProt P40227)
inactive: [1] -0.011 | [2] -0.008 | [3] -0.006 | [4] 0.022 | [5] -0.003 | [6] 0.066 | [7] -0.006 | [8] -0.001 | [9] -0.036 | [10] -0.036 | [11] 0.008 | [12] 0.022 | [13] 0.009 | [14] -0.009 | [15] -0.028 | [16] 0.007 | [17] -0.02 | [18] 0 | [19] 0.007 | [20] 0.003

Four neighbouring records from above:
CDC34 (UniProt P49427)
inactive: [1] -0.351 | [2] -0.368 | [3] 0.038 | [4] -0.158 | [5] -0.095 | [6] -0.052 | [7] 0.119 | [8] 0.15 | [9] 0.057 | [10] -0.358 | [11] -0.094 | [12] -0.138 | [13] 0.044 | [14] -0.111 | [15] 0.003 | [16] -0.237 | [17] 0.092 | [18] -0.072 | [19] 0.098 | [20] -0.027

CBL (UniProt P22681)
inactive: [1] -0.02 | [2] -0.029 | [3] 0.034 | [4] 0.001 | [5] -0.024 | [6] -0.043 | [7] -0.014 | [8] 0.014 | [9] -0.02 | [10] -0.026 | [11] -0.02 | [12] 0.014 | [13] -0.076 | [14] -0.01 | [15] -0.021 | [16] -0.017 | [17] -0.011 | [18] -0.031 | [19] -0.017 | [20] 0.017

CCT5 (UniProt P48643)
inactive: [1] 0.002 | [2] 0.01 | [3] 0.004 | [4] 0.027 | [5] 0.004 | [6] 0.036 | [7] -0.004 | [8] 0.015 | [9] -0.03 | [10] 0.008 | [11] 0.036 | [12] -0.007 | [13] -0.007 | [14] -0.034 | [15] -0.026 | [16] -0.01 | [17] -0.096 | [18] -0.002 | [19] 0.046 | [20] 0.006

CCT8 (UniProt P50990)
inactive: [1] -0.004 | [2] -0.026 | [3] 0.005 | [4] 0.029 | [5] -0.001 | [6] 0.026 | [7] -0.008 | [8] 0.007 | [9] -0.041 | [10] -0.018 | [11] 0.007 | [12] 0.014 | [13] 0.008 | [14] -0.001 | [15] -0.03 | [16] 0.004 | [17] -0.045 | [18] 0.009 | [19] 0.014 | [20] 0.001

Later entries.

CCDC134 (UniProt Q9H6E4)
inactive: [1] 0.043 | [2] 0.004 | [3] 0.006 | [4] -0.022 | [5] -0.012 | [6] -0.028 | [7] -0.036 | [8] 0.029 | [9] 0.101 | [10] 0.055 | [11] -0.035 | [12] -0.049 | [13] 0.029 | [14] 0.028 | [15] 0.025 | [16] 0.03 | [17] -0.004 | [18] 0.006 | [19] 0.033 | [20] -0.002

CARNMT1 (UniProt Q8N4J0)
inactive: [1] -0.012 | [2] -0.057 | [3] 0.015 | [4] -0.018 | [5] 0 | [6] -0.074 | [7] 0.023 | [8] 0.026 | [9] -0.053 | [10] 0.024 | [11] 0.052 | [12] 0.043 | [13] -0.005 | [14] -0.056 | [15] 0.043 | [16] -0.052 | [17] -0.035 | [18] -0.022 | [19] 0.004 | [20] -0.052
